Measurements reported in publication PMC8949324.

Chains of the proteins cited; added tags and fusions are not shown.
UniProt P16794: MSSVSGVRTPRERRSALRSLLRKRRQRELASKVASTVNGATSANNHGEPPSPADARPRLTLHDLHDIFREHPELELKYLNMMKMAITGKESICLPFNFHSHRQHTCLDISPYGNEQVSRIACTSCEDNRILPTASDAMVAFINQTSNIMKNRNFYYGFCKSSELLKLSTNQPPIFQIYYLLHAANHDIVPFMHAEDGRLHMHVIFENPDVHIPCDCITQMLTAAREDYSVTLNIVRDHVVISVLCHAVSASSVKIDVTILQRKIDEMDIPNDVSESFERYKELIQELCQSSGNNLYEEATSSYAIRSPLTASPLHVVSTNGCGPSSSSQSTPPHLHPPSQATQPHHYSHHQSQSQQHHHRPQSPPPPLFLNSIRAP
UniProt P09695: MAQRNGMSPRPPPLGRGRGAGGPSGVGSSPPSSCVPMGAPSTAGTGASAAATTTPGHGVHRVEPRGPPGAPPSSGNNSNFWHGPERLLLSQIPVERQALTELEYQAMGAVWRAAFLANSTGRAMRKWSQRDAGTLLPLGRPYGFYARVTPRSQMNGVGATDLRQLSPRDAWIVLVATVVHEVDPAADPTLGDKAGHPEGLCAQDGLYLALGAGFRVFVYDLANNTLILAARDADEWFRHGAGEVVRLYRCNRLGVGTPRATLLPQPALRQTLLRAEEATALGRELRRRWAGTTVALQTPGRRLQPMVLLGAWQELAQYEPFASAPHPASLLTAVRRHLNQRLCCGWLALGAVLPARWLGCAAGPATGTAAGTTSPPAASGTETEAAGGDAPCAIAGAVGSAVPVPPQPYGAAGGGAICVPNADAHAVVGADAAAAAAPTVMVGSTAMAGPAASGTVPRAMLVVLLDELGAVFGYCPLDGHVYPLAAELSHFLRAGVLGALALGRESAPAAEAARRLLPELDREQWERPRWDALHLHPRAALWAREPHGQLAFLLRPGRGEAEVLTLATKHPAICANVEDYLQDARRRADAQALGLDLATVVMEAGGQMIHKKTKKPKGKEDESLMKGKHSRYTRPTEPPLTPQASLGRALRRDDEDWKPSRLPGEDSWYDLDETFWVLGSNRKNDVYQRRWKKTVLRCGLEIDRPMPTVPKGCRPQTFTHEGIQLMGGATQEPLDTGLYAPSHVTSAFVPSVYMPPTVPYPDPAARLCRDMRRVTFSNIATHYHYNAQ
UniProt P08318: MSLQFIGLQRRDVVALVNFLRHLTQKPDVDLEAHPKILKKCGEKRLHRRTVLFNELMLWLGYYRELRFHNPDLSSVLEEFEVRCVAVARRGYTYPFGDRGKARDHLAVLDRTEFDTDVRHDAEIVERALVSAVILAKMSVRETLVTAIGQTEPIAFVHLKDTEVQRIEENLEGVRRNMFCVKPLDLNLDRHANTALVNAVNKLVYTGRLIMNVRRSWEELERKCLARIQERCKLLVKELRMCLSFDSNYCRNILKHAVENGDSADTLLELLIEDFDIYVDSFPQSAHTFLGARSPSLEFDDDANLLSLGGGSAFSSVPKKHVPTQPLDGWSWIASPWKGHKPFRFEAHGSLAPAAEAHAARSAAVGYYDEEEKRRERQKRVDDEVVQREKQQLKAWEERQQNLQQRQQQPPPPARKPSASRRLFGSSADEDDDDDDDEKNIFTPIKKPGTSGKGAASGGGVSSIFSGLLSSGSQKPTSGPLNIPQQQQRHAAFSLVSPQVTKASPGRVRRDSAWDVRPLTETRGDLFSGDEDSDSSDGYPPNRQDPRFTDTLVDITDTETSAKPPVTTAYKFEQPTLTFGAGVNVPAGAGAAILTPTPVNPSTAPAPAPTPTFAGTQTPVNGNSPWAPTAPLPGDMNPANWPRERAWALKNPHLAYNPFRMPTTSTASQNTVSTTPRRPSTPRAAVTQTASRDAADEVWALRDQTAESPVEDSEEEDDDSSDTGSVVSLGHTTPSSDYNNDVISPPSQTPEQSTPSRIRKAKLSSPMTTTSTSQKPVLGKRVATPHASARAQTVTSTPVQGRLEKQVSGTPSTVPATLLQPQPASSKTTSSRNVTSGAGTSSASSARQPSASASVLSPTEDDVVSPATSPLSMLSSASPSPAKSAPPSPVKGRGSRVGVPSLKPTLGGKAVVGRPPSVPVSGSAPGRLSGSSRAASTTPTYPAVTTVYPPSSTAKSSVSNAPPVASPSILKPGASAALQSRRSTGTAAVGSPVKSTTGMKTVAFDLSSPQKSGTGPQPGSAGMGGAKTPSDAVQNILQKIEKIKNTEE
UniProt Q9Y4I1: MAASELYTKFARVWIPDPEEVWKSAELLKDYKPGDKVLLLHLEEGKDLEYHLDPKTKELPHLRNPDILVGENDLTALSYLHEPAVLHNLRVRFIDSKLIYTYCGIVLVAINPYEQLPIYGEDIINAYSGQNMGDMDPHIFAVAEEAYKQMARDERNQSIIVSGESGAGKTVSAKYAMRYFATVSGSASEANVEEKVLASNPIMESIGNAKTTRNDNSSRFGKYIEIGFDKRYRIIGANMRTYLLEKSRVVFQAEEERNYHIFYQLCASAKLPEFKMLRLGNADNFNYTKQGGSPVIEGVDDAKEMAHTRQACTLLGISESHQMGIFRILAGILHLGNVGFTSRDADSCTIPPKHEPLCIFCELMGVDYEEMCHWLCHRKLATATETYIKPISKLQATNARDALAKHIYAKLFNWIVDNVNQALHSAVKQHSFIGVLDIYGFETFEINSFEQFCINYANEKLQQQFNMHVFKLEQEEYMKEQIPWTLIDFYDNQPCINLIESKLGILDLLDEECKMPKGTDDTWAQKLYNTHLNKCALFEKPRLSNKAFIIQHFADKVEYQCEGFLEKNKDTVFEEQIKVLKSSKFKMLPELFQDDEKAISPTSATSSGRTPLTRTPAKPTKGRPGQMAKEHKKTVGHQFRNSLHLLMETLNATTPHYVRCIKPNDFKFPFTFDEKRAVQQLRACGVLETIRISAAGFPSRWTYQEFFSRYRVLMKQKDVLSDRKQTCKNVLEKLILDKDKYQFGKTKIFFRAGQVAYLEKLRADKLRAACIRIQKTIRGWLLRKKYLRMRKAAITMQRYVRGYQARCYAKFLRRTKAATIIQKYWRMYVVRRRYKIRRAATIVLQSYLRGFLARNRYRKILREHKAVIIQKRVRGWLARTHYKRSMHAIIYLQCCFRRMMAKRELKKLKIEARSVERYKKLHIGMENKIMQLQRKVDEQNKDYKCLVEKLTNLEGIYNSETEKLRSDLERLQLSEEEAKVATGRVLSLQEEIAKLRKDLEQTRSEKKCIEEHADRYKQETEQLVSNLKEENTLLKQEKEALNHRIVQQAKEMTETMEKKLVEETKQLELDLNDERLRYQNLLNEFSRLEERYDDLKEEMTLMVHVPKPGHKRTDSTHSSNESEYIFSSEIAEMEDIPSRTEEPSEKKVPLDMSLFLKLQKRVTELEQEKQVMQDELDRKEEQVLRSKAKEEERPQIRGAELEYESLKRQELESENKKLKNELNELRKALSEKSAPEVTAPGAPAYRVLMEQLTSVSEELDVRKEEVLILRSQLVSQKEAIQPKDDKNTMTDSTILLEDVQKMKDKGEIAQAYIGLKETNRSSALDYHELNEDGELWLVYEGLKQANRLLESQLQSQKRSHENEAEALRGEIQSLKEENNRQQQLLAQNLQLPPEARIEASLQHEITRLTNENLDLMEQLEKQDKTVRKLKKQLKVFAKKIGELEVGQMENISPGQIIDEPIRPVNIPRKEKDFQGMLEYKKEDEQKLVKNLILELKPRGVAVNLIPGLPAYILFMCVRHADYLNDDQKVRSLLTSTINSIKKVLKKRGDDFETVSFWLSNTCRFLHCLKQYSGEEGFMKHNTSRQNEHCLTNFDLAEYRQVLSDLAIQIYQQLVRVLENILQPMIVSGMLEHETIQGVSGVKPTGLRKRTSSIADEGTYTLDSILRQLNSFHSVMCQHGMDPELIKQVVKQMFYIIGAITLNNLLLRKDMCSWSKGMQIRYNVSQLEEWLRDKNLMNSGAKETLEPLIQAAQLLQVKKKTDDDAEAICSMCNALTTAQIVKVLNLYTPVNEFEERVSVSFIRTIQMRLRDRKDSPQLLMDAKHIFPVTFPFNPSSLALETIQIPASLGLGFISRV
UniProt P16732: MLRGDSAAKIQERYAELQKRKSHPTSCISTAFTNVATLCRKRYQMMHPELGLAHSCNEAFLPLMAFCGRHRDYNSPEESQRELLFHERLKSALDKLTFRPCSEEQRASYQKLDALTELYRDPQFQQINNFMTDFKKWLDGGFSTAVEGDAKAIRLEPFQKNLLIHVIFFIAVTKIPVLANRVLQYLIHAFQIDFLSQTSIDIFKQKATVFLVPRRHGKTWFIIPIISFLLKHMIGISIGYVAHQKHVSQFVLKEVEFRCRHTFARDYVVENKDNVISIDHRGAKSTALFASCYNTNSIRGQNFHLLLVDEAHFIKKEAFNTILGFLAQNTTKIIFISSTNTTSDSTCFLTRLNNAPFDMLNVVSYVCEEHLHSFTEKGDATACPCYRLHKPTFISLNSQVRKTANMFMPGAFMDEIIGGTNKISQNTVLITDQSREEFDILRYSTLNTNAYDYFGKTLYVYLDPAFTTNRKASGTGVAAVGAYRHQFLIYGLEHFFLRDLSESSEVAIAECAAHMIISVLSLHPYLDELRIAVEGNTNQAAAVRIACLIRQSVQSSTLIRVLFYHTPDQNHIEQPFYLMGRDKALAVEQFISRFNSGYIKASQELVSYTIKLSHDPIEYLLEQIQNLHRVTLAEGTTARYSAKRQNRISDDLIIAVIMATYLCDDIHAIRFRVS

Each molecule was assayed against FLAG-tagged UL53 expressed from 53-F HCMV (AD169-RV encoding a FLAG-tagged version of UL53) (human cytomegalovirus (HCMV), strain AD169) (UniProt P16794) (assay: affinity purification with mass spectrometry).

Molecule | binding
TRS1 (from UniProt P09695 1-788) | binds
inner tegument protein UL32 (pp150) (from UniProt P08318 1-1048) | binds
myosin Va (from UniProt Q9Y4I1 1-1855) | binds
terminase subunit UL89 (from UniProt P16732 1-674) | binds
capsid portal protein (UL104) (protein, UniProt P16735 1-697) MERNHWNEKSSGAKRSRERDLTLSTIRSILAADERLRIKASSYLGVGRGVDDEAVIDIFPTGQTMSFLRLLHGFLGTCRGQSMHQVLRDPCVLRKQLLYGVCKTLFDTITVRRVAEEWKLHAALFPYRALDEEDLEQYLLVWSASLRQSVQTGVLGALRDILYQYADNDDYGLYVDWCVTVGLVPLLDVKTKPSEAAERAQFVRAAVQRATETHPLAQDLLQANLALLLQVAERLGAVRVANAPEVRVFKKVRSERLEAQLRGKHIRLYVAAEPLAYERDKLLFTTPVAHLHEEILRYDGLCRHQKICQLLNTFPVKVVTASRHELNCKKLVEMMEQHDRGSDAKKSIMKFLLNVSDSKSRIGIEDSVESFLQDLTPSLVDQNRLLPARGPGGPGVVGPGGAVVGGPAGHVGLLPPPPGPAAPERDIRDLFKKQVIKCLEEQIQSQVDEIQDLRTLNQTWENRVRELRDLLTRYASRREDSMSLGARDAELYHLPVLEAVRKARDAAPFRPLAVEDNRLVANSFFSQFVPGTESLERFLTQLWENEYFRTFRLRRLVTHQGAEEAIVYSNYTVERVTLPYLCHILALGTLDPVPEAYLQLSFGEIVAAAYDDSKFCRYVELICSREKARRRQMSREAAGGVPERGTASSGGPGTLERSAPRRLITADEERRGPERVGRFRNGGPDDPRRAGGPYGFH | binds
terminase subunit UL56 (protein, UniProt P16724 1-850) MEMNLLQKLCVVCSKCNEYAMELECLKYCDPNVLLAESTPFKRNAAAIVYLYRKIYPEVVAQNRTQSSLLTLYLEMLLKALHEDTALLDRALMAYSRQPDRAAFYRTVLRLDRCDRHHTVELQFTDNVRFSVSLATLNDIERFLCKMNYVYGILAPEAGLEVCAQLLELLRRLCGISPVARQEVYVEGTTCAQCYEELTIIPNQGRSLNKRLQGLLCNHIAVHRPSSQSDVNIQTVEQDLLDLTTRIPHLAGVLSALKSLFSSSSAYHSYIQEAEEALREYNLFTDIPERIYSLSDFTYWSRTSEVIVKRVGITIQQLNVYHQLCRALMNGISRHLYGEDVEDIFVLGEKALDGEERMFVGSVFAAPNRIIDLITSLSIQAFEDNPVFNKLHESNEMYTKIKHILEEIRRPLPDGTGGDGPEGEAIHLRGREAMSGTGTTLMTASNSSNSSTHSQRNNGGGGRARGGGKKVVGGGVNGQDGDGSENGLRVRNCDEHEALDLVDARSRIHNVTREVNVRKRAYLQKVSEVGYGKVIRCIKTQERLTSKLIDVNLVGPLCLDFISKLMNGFLYRSQYHQDQDVVDVGDQFTYDEHLYVVNNLIHKSLPVESLPLLGQQIYELCNGPLFTHCTDRYPLSHNVDMAYACDNAGVLPHVKDDLVKCAEGTVYPSEWMVVKYMGFFNFSDCQDLNVLQKEMWMHVRELVLSVALYNETFGKQLSIACLRDELHPDRDVILTYNKEWPLLLRHEGSLYKSKDLYLLLYRHLSRPDESGDVPTAPVAKPSTLTAAAAVSGVFREPDRPWLPSPYPSSSTAGVSRRVRATRKRPRRASSLLDLARDEHGIQDLVPGSLR | binds

Results are given in words; binding and its absence hold for the method and conditions named. In cells and extracts the contact can be indirect. These calls come from enrichment with a bait or labelling near it, and not all partners need be listed.
